Experimental data: patent US8034574B2, “Screening method for prokinetic agent” (Astellas Pharma Inc., priority 2006, dated 2011)
Some results were stated once for a whole list of compounds, not compound by compound.

Tested on: guinea pig ileum
Experiment: Isolated guinea pig gut constriction (Magnus, ileum)
Settings: tested at 10, 30, 100, 300 μM
Experimental: Guinea pigs (Hartley strain, male, weighing 300-400 g), under ether anesthesia, were exsanguinated to death by cutting the carotid artery. The ileum was extirpated, about 15-cm portions at both ends were removed, a section 1.5 cm long was cut out from the remaining portion, and incisions were made longitudinally parallelly in the gut to prepare a tabular specimen. This specimen was sandwiched with serrefine at both ends, and suspended with a thread in a Magnus chamber containing 10 ml of a 37° C. Krebs solution (118 mM NaCl, 4.7 mM KCl, 2.5 mM CaCl2, 1.2 mM MgSO4, 1.2 mM KH2PO4, 11 mM D-glucose, 20 mM NaHCO3) aerated with 95% O2-5% CO2 mixed gas. A 1-g load was applied to the specimen, buffers were exchanged at 15-minute intervals, and the specimen was allowed to stand for about 60 minutes to stabilize its tension. Changes in the tension in response to agonist stimulation were measured isometrically, and recorded on a recorder. Acetylcholine, 10^−5 M, was administered to induce contraction of the ileum specimen; after the contraction maximized, the bath was washed three times to purge out the acetylcholine. […] By comparing the contractile forces produced by acetylcholine and the test substance, the effect of the test substance was evaluated. […]

SMILES	concentration at which constrictive action was observed [µM]
O=C/C=C/c1ccccc1 [cinnamic aldehyde]	≥ 100
C=CCN=C=S [allyl isothiocyanate]	≥ 100
